Reference: patent publication US20250092151A1
No constants are given. Whether binding was seen depends on the method and setting. Some results given as binding are weak or reduced against the parent protein; the word gives no strength.

The chains behind the UniProt entries cited, without tags or fusion partners. Where a name states a change or a piece, a line headed by the entry shows the natural chain unless it says otherwise.
UniProt Q14242: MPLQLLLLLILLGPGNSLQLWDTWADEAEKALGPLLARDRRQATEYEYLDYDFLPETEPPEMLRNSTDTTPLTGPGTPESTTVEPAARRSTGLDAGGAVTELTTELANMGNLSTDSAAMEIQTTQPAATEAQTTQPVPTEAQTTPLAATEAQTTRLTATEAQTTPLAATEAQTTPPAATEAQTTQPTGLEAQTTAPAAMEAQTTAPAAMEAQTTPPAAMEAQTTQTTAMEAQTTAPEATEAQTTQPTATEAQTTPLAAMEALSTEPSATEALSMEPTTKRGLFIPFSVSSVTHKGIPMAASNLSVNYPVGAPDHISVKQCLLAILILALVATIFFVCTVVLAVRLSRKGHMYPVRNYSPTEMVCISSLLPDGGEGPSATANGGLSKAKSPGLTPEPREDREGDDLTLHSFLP

Target: human P-selectin glycoprotein ligand-1 (PSGL-1), expressed on Sp2/0-hPSGL-1 cells (human) (UniProt Q14242)
Test: flow cytometry on Sp2/0-hPSGL-1 cells

B1: h15A7H (antibody, IgG4, V domains shown)
VH: EVQLVESGGGLVQPGGSLRLSCAASGFTFSSFGMHWVRQAPGKGLEWVAYINGGSSTIFYANAVKGRFTISRDNAKNTLYLQMNSLRAEDTAVYYCARYASYGGGAMDYWGQGTLVTVSS
VL: DIQMTQSPSSLSASVGDRVTITCRSSQSIVHNDGNTYFEWYQQKPGKAPKLLIYKVSNRFSGVPSRFSGSGSGTHFTLTISSLQPEDFATYYCFQGSYVPLTFGQGTKVEIK
binding: binds
